Source: patent US10995067B2, “Treatment of Fabry disease” (Academia Sinica, priority 2016, dated 2021)
At least one compound was matched to its structure with a doubt left.

Tested on: α-glucosidase from Bacillus stearothermophilus
Assay: Glycosidase activity assay: α-glucosidase
Conditions: inhibitors tested at 100 μM

## O=C(CCCCC1CCCCC1)NC[C@H]1N[C@H](CO)[C@H](O)[C@@H]1O [Compound 33]
  Inhibition activity (%) α-glucosidase: No inhibition
